Measurements: patent US20190030126A1, “Inhibitors of the Interaction BCL-2 L10 / IP3 Receptors” (Universite Claude Bernard - Lyon 1, priority 2016, published 2019)
These are yes or no findings as the source states them, for the method shown. In cells and extracts the contact can be indirect. Some results given as binding are weak or reduced against the parent protein; the word gives no strength. For part of these data: Sequences can lack the tags named with a protein.

Chains of the proteins cited; added tags and fusions are not shown. Lines headed by an entry give the natural chain unless they say otherwise; changes in a name come on top. A line that says so, or that is headed by a name, gives the form on record, which may keep a tag or linker.
UniProt Q14643: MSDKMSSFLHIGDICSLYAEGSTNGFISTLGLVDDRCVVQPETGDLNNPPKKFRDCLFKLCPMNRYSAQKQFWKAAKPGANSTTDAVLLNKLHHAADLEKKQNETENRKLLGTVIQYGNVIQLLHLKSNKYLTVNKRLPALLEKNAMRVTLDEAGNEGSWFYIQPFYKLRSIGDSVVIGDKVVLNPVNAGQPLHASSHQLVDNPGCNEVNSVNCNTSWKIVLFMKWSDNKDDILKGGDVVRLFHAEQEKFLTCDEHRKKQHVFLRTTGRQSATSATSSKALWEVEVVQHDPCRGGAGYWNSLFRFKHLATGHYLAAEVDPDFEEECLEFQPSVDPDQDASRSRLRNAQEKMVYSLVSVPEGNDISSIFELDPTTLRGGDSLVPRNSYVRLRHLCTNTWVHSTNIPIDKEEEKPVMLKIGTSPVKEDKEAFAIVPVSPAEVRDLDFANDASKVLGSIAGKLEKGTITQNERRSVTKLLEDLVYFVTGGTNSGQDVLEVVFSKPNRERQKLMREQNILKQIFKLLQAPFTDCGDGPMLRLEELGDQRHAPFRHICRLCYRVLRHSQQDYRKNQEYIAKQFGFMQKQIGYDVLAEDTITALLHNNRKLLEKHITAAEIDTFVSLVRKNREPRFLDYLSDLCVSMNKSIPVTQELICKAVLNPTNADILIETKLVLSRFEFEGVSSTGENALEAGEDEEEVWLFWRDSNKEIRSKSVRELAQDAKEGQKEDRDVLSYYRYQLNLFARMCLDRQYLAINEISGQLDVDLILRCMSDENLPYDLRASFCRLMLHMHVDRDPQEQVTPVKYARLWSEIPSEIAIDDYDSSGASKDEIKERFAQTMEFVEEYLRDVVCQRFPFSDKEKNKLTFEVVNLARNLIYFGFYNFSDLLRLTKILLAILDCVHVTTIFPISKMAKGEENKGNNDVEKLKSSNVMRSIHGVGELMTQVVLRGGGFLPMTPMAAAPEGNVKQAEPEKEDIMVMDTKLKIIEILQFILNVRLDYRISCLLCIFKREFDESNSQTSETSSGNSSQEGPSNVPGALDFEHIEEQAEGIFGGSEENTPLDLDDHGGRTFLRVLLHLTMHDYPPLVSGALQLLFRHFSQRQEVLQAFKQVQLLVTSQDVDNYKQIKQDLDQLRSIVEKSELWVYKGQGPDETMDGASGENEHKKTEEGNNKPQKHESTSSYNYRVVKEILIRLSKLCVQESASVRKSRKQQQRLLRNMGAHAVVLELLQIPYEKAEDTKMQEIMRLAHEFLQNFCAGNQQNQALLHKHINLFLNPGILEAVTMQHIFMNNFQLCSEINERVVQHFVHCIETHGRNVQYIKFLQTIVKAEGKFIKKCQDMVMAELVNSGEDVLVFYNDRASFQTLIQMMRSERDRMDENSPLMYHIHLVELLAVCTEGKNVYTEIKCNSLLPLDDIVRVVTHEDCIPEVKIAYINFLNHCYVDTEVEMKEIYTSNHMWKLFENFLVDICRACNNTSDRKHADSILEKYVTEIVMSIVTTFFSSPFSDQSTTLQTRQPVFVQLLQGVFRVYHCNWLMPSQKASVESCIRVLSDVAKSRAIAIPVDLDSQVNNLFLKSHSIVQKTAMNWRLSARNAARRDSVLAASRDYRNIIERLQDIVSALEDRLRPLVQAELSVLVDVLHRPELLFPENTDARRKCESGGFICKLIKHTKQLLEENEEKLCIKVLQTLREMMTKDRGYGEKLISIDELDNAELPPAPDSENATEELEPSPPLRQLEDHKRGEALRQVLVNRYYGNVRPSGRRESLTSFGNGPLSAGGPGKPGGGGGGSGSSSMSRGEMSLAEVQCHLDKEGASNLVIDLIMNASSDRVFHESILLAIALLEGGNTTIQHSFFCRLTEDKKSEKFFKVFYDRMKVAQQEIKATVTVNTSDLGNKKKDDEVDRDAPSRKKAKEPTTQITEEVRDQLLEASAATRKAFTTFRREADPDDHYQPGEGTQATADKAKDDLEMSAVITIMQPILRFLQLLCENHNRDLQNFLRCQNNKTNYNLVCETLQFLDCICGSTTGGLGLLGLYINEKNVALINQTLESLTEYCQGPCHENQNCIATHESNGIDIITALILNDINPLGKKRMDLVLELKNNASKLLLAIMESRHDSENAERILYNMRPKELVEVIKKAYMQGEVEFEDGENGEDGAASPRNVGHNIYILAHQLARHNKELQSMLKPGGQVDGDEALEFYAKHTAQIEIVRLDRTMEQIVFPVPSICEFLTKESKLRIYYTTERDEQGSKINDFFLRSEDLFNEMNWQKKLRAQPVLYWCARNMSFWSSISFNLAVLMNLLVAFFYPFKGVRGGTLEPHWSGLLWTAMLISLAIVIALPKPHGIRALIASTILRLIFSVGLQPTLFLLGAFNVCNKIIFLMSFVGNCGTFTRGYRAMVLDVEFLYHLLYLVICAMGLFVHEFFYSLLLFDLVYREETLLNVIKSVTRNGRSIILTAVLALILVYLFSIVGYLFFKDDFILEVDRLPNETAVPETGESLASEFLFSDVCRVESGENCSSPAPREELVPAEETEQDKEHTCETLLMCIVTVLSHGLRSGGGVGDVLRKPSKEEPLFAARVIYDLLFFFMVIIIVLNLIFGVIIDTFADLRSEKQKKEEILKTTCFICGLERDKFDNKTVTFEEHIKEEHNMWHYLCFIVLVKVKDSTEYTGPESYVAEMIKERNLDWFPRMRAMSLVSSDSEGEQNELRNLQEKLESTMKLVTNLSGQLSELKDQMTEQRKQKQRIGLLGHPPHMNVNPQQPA
HA-hBD (IP3 ligand binding domain of human IP3R1 tagged with an HA epitope) (Q14643, form named): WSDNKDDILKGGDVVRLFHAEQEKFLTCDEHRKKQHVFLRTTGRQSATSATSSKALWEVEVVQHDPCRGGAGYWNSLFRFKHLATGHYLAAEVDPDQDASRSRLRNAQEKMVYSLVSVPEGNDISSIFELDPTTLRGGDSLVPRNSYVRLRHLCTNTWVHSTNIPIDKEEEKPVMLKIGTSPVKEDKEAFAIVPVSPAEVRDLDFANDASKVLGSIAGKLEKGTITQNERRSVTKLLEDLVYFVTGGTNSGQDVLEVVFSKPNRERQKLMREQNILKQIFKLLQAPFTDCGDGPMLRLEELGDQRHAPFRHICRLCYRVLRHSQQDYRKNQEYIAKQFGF

T1: HA-Nrh (human Bcl-2 L10/Nrh protein tagged with HA) (human) (UniProt Q9HD36)
T1 sequence (looked up): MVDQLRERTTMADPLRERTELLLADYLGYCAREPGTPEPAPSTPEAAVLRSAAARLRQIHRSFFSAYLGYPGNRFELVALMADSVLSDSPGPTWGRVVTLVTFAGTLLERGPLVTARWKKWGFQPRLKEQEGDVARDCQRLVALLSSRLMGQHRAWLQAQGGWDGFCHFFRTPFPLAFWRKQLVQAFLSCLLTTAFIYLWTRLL


Assays:
[1] = target: endogenous IP3R1 (inositol 1,4,5-triphosphate receptor type 1) in MDA-MB-231 cells (human) (UniProt Q14643); assay: proximity ligation assay (PLA) on fixed MDA-MB-231 cells
[2] = target: T1, HA-Nrh (human Bcl-2 L10/Nrh protein tagged with HA) (human); assay: co-immunoprecipitation with anti-HA antibody
[3] = target: HA-hBD (IP3 ligand binding domain of human IP3R1 tagged with an HA epitope) (human) (UniProt Q14643); assay: co-immunoprecipitation with anti-HA antibody, transfected HeLa cells, Western blot

Binder	binding [1]	binding [2]	binding [3]
endogenous protein Bcl-2 L10/Nrh (in cells) (protein, human, UniProt Q9HD36 1-204, looked up) MVDQLRERTTMADPLRERTELLLADYLGYCAREPGTPEPAPSTPEAAVLRSAAARLRQIHRSFFSAYLGYPGNRFELVALMADSVLSDSPGPTWGRVVTLVTFAGTLLERGPLVTARWKKWGFQPRLKEQEGDVARDCQRLVALLSSRLMGQHRAWLQAQGGWDGFCHFFRTPFPLAFWRKQLVQAFLSCLLTTAFIYLWTRLL	binds	–	–
Flag-Nrh (human Bcl-2 L10/Nrh protein tagged with a Flag epitope) (protein, UniProt Q9HD36 1-204, looked up, not shown: small tags and cut ends) MVDQLRERTTMADPLRERTELLLADYLGYCAREPGTPEPAPSTPEAAVLRSAAARLRQIHRSFFSAYLGYPGNRFELVALMADSVLSDSPGPTWGRVVTLVTFAGTLLERGPLVTARWKKWGFQPRLKEQEGDVARDCQRLVALLSSRLMGQHRAWLQAQGGWDGFCHFFRTPFPLAFWRKQLVQAFLSCLLTTAFIYLWTRLL	–	binds	binds
